These results are taken from the supplement of paper PMC7580552.

Counter-ions that a name gives are not always drawn. ± gives the standard deviation of the averaged measurements. Some of the results follow. Baselines shift from plate to plate; read single values as rough.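 The strain is a K-12 laboratory model grown without shaking in 96-well plates, and biofilm is the crystal violet stain retained on the wells, read as absorbance. Drugs were picked as candidate specific biofilm blockers when they cut staining strongly but slowed free-floating growth by less than 70%.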

For this assay, the system named is Escherichia coli W3110. The experiment in a line: biofilm formation (crystal violet staining) relative to untreated control; higher = more biofilm. Conditions: 10 µM; 20-24 h; 30 °C; TB.
As for `O=C(O)c1cc(=O)c2c(OCC(O)COc3cccc4oc(C(=O)O)cc(=O)c34)cccc2o1` [Cromolyn disodium salt], the biofilm formation amounted to 75%.
`CCC(C)(C)c1ccc(CC(C)CN2C[C@@H](C)O[C@@H](C)C2)cc1` (some centres not stated) [Amorolfine hydrochloride]: the biofilm formation was determined as 78%.
With `CCOC(=O)c1ccc(C#Cc2ccc3c(c2)C(C)(C)CCS3)nc1` [Tazarotene] the figure was 89%.
As for `CC[C@]12CCCN3CCc4c(n(c5ccccc45)[C@@](O)(C(=O)OC)C1)[C@@H]32` [Vincamine], the biofilm formation was determined as 57%.
The figure for `Nc1ccc(S(N)(=O)=O)cc1` [Sulfanilamide] is 70%.
The figure for `CC(CCc1ccc(O)cc1)NCCc1ccc(O)c(O)c1` (configuration not stated) [Dobutamine hydrochloride] is 51%; for `CNCC[C@@H](Oc1cccc2ccccc12)c1cccs1` [(R)-Duloxetine hydrochloride] it is 81%.
With `CC1=C(C(=O)O)N2C(=O)[C@@H](NC(=O)[C@H](N)c3ccc(O)cc3)[C@H]2SC1` [Cefadroxil] the figure was 79%.
As for `C=CCN1CCCC1CNC(=O)c1cc2nn[nH]c2cc1OC` (configuration not stated) [Alizapride hydrochloride], the biofilm formation stood at 101%.
With `CC(C)(Oc1ccc(C2CC2(Cl)Cl)cc1)C(=O)O` (configuration not stated) [Ciprofibrate] the figure was 58%; with `CC(=C(CCO)SSCC1CCCO1)N(C=O)Cc1cnc(C)nc1N` (stereo in doubt) [Fursultiamine Hydrochloride], 82%; with `CCC(C)(CN(C)C)OC(=O)c1ccccc1` (configuration not stated) [Amyleine hydrochloride], 79%.
For the molecule `C=C(NC(=O)C(=C)NC(=O)c1csc(C2=N[C@@H]3c4csc(n4)[C@H]4NC(=O)c5csc(n5)[C@H]([C@](C)(O)[C@@H](C)O)NC(=O)[C@H]5CSC(=N5)/C(=C/C)NC(=O)[C@H]([C@@H](C)O)NC(=O)c5csc(n5)[C@]3(CC2)NC(=O)[C@H](C)NC(=O)C(=C)NC(=O)[C@H](C)NC(=O)[C@H]([C@@H](C)CC)N[C@@H]2C=Cc3c([C@H](C)O)cc(nc3[C@H]2O)C(=O)O[C@@H]4C)n1)C(N)=O` [Thiostrepton], the biofilm formation stood at 54%.
`Cn1c(=O)c2c(ncn2CC(O)CO)n(C)c1=O` (configuration not stated) [Diprophylline]: the biofilm formation stood at 60%.
With `NC(=O)c1cccnc1` [Nicotinamide] the figure was 80%.
On to `CNC1(C)C2CCC(C2)C1(C)C` (configuration not stated) [Mecamylamine hydrochloride], for which the biofilm formation stood at 62.5 ± 59%.
With `CC(CN1c2ccccc2Sc2ccccc21)N(C)C` (configuration not stated) [Promethazine hydrochloride] the figure was 59%; with `NS(=O)(=O)c1cc2c(cc1C(F)(F)F)NC(Cc1ccccc1)NS2(=O)=O` (configuration not stated) [Bendroflumethiazide], 74%; with `O=C(c1ccc(OCCN2CCCCC2)cc1)c1c(-c2ccc(O)cc2)sc2cc(O)ccc12` [Raloxifene hydrochloride], 59%.
With `CCn1cc(C(=O)O)c(=O)c2cc(F)c(N3CCNCC3)cc21` [Norfloxacin] the figure was 15%.
With `CCOC(=O)C1=C(C)NC(C)=C(C(=O)OC)C1c1cccc([N+](=O)[O-])c1` (configuration not stated) [Nitrendipine] the figure was 53%; with `CC1CCc2cc(F)cc3c(=O)c(C(=O)O)cn1c23` (configuration not stated) [Flumequine], 3%; with `O=C(NCC1CCCCN1)c1cc(OCC(F)(F)F)ccc1OCC(F)(F)F` (configuration not stated) [Flecainide acetate], 65%.
As to `CCCCOc1ccc(OCCCN2CCOCC2)cc1` [Pramoxine hydrochloride], the biofilm formation was determined as 80%.
With `CC(C)[C@H]1CC[C@H](C(=O)N[C@H](Cc2ccccc2)C(=O)O)CC1` [Nateglinide] the figure was 75%.
As to `COc1ccccc1OCCNCC(O)COc1cccc2[nH]c3ccccc3c12` (configuration not stated) [Carvedilol], the biofilm formation was 73%.
With `CC(C)c1nc(CN(C)C(=O)N[C@H](C(=O)N[C@@H](Cc2ccccc2)C[C@H](O)[C@H](Cc2ccccc2)NC(=O)OCc2cncs2)C(C)C)cs1` [Ritonavir] the figure was 87%; with `COc1cc(N)c(Cl)cc1C(=O)NC1CCN(Cc2ccccc2)CC1` [Clebopride maleate], 85%; with `CCN1CCCC1CNC(=O)c1cc(S(=O)(=O)CC)c(N)cc1OC` (configuration not stated) [Amisulpride], 94%.
In turn, `Nc1nc(N)nc(-c2cc(Cl)ccc2Cl)n1` [Irsogladine maleate] displayed a biofilm formation of 71%.
Molecule `Cc1c(OCC(F)(F)F)ccnc1C[S+]([O-])c1nc2ccccc2[nH]1` (configuration not stated) [Lansoprazole] yielded a biofilm formation of 62%.
The figure for `Cn1c(=O)c2c(ncn2C)n(C)c1=O` [Caffeine] is 75%; for `CC(C)(C)NCC(O)c1ccc(O)c(CO)c1` (configuration not stated) [Salbutamol] it is 75%; for `CC(C)(C)NC(=O)[C@@H]1CN(Cc2cccnc2)CCN1C[C@@H](O)C[C@@H](Cc1ccccc1)C(=O)N[C@H]1c2ccccc2C[C@H]1O` [Indinavir sulfate] it is 74%.
`O=C(O[C@@H]1C[C@@H]2C[C@H]3C[C@H](C1)N2CC3=O)c1c[nH]c2ccccc12` [Dolasetron mesilate] returned a biofilm formation of 73%.
With `COC(=O)Nc1nc2cc(C(=O)c3ccc(F)cc3)ccc2[nH]1` [Flubendazol] the figure was 50.5 ± 3.5%.
With `COC1=CC(=O)C[C@@H](C)[C@]12Oc1c(Cl)c(OC)cc(OC)c1C2=O` [Griseofulvin] the figure was 70%.
The figure for `CN(C)CCC(c1ccc(Cl)cc1)c1ccccn1` (configuration not stated) [Chlorpheniramine maleate] is 36%; for `COc1cc(N)c(Cl)cc1C(=O)NC1CCN(CCCOc2ccc(F)cc2)CC1OC` (configuration not stated) [Cisapride] it is 94%.
The molecule `CN(C)CCCC1(c2ccc(F)cc2)OCc2cc(C#N)ccc21` (configuration not stated) [Citalopram Hydrobromide] yielded a biofilm formation of 75%.
On to `CCCC(CCC)C(=O)O` [Valproic acid], for which the biofilm formation stood at 51%.
The figure for `O=C(O)CNC(=O)C(CS)Cc1ccccc1` (configuration not stated) [Thiorphan] is 91%; for `Cc1onc(-c2ccccc2)c1C(=O)N[C@@H]1C(=O)N2[C@@H]1SC(C)(C)[C@@H]2C(=O)O` [Oxacillin sodium] it is 47%; for `COc1ccc2c(c1)C(=O)N(CCc1ccc(S(=O)(=O)NC(=O)NC3CCCCC3)cc1)C(=O)C2(C)C` [Gliquidone] it is 74%.
The figure for `CN(C)CCN(Cc1ccc(Cl)cc1)c1ccccn1` [Chloropyramine hydrochloride] is 74%; for `NS(=O)(=O)Cc1noc2ccccc12` [Zonisamide] it is 59%; for `Cc1cn([C@H]2C[C@H](N=[N+]=[N-])[C@@H](CO)O2)c(=O)[nH]c1=O` [Zidovudine, AZT] it is 16%.
